Laboratory results as given in paper PMC5323044.
These are yes or no findings as the source states them, for the method shown. For some of these results: Binding calls can cover weak binding; strength is not graded here. For some of these results: Sequences can lack the tags named with a protein. For some of these results: Binding seen in cells or lysates may run through a third protein.

Tests used:
[1] = biological target: T1, His-tagged SNX6 N-terminus (aa 1-181, encompassing the PX domain) (UniProt Q9UNH7); assay: pull-down; His-SNX1-N or His-SNX6-N immobilized on Ni-NTA agarose, incubated with mouse brain lysate overnight at 4°C; bound proteins by immunoblotting; only the target purified
T1 sequence: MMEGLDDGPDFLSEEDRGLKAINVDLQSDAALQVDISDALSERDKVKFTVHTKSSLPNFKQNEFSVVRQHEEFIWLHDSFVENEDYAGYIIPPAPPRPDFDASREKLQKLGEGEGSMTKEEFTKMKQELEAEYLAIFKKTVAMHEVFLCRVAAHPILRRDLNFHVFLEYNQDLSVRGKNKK

[2] = biological target: T2, SNX6 (endogenous, mouse brain) (mouse (endogenous in brain)) (UniProt Q6P8X1); assay: immunoisolation of vesicles (membrane IP); membrane fraction (p100) of mouse brain lysate, buffer without detergent (0.25 M sucrose, 150 mM NaCl); mouse anti-SNX6 antibody coupled to Dynabeads Protein G; immunoblotting
T2 sequence: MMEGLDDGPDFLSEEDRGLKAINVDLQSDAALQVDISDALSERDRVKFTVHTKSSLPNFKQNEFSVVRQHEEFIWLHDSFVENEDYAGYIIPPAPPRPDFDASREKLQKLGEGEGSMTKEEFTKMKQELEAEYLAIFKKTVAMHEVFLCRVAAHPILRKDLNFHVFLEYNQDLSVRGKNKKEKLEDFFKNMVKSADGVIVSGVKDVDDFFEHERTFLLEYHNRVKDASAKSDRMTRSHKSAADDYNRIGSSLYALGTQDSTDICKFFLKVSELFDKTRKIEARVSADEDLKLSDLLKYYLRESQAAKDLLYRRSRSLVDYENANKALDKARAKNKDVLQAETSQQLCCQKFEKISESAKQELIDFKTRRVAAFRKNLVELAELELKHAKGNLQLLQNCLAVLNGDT

[3] = biological target: T3, GST-SNX6-N (aa 1-181) (UniProt Q9UNH7); assay: pull-down; in vitro binding assay: 2 μg of recombinant His-sumo-Homer protein incubated with GST, GST-SNX1-N or GST-SNX6-N immobilized on glutathione-Sepharose beads overnight at 4°C; immunoblotting; both purified
T3 sequence: T1 sequence

binding [1] | binding [2] | binding [3] | Substance
no binding | no binding |  | Homer1a (endogenous, mouse brain)
 |  | binds | His-sumo-Homer1c-C (aa188-366) (domain or fragment)
 | binds |  | dynein intermediate chain (DIC) (endogenous, mouse brain)
